Reference: PubChem BioAssay AID540276 (National Center for Advancing Translational Sciences (NCATS), 2011)
Values joined by “and” are separate entries in the source; they are usually repeats but may differ in a detail not shown here. Equal entries are not always repeated. The campaign covered roughly 300,000 compounds. About 5,400 (1.8%) were called active. Inconclusive results, whose numbers are uncertain, are shown with a selection of clear calls. The call rests on the fitted dose curve; tested in HEK293 cells. Potencies beside an inconclusive call are fits to weak or partial responses and may not hold up.

Assay: qHTS for inhibitors of binding or entry into cells for Marburg Virus
Settings: Marburg virus pseudotyped entry inhibition, cell reporter; series mostly up to 37.8 µM
Potency means the concentration at half of the fitted maximal effect.

SMILES | Potency
c1ccc(CSc2ncn[nH]2)nc1 | inconclusive: 31.6 µM [activator, single point]
COC(=O)c1ccc2ccn(CC(=O)NC3CCCCC3)c2c1 | inconclusive: 0.794 µM [inhibitor, partial curve, poor fit]
Cc1ccccc1Nc1nc(N2CCOCC2)nc(N2CCOCC2)n1 | active: 6.31 µM
Cc1cccc(OCC(=O)NCC(=O)N/N=C/c2cc(Br)ccc2OCc2ccccc2)c1 | inconclusive: 29.1 µM [inhibitor, single point]
COc1cc(/C=N/N2CCOCC2)ccc1OCc1ccccc1 | inconclusive: 15.8 µM [inhibitor, single point]
CCOC(=O)/C(C#N)=C\c1ccc(CC)s1 | inactive
CC(C)CCn1c(=O)c2ccccc2n2c(CCl)nnc12 | inconclusive: 20 µM [inhibitor, single point]
CCOc1ccc(S(=O)(=O)Nc2cccc(C(=O)NCC(c3ccc(OC)cc3)N3CCOCC3)c2)cc1 (stereo not drawn) | inactive
Cn1cnnc1SC(C(=O)Nc1cc(Cl)cc(Cl)c1)c1ccccc1 (stereo not drawn) | inconclusive: 35.5 µM [inhibitor, single point]
Cc1cc2cc(C(c3nnnn3Cc3ccccc3)N3CCc4ccccc43)c(=O)[nH]c2cc1C (stereo not drawn) | inconclusive: 4.61 µM [inhibitor, partial curve, poor fit]
COc1ccc(NCc2ccc([N+](=O)[O-])s2)cc1 | inactive
CNC(=O)/C(C#N)=C\c1cc(C)n(-c2ccc(N3CCOCC3)cc2)c1C | inconclusive: 1.58 µM [activator, full curve, poor fit]
CCOC(=O)c1c(NC(=O)CSc2nnc(-c3cccnc3)o2)sc2c1CCC2 | inactive
CN(C)CCNc1ccc(CO)c2oc3ccc(O)cc3c(=O)c12 | inconclusive: 7.08 µM [inhibitor, full curve]
CS(=O)(=O)N(CC(=O)NC1CC2CCC1C2)c1ccc(Oc2ccccc2)cc1 (stereo not drawn) | inconclusive: 6.31 µM [inhibitor, full curve, poor fit]
CC(C)Cn1c(N)c(C(=O)NCCN2CCOCC2)c2nc3ccccc3nc21 | inconclusive: 8.2 µM [inhibitor, partial curve, poor fit]
N#Cc1c(N)n(C2CCCCC2)c2nc3ccccc3nc12 | inconclusive: 10 µM [inhibitor, partial curve, poor fit]
Cc1ccc(OCCNc2ccc(C(F)(F)F)cc2[N+](=O)[O-])cc1 | inconclusive: 1.78 µM [inhibitor, single point]
O=C(C1CCCC1)N1CCN(S(=O)(=O)c2ccc(F)cc2)CC1 | inactive
CCc1ccc2oc(-c3cc(NC(=O)c4cccs4)ccc3Cl)nc2c1 | inconclusive: 5.62 µM [activator, single point]
COc1ccc(/C=N/n2c(C)nc3sc(C)c(C)c3c2=O)cc1 | inconclusive: 8.91 µM [activator, partial curve, poor fit]
CCOC(=O)c1[nH]c(C)c(CN(C(C)=O)c2ccc(OCC)cc2)c1C | inconclusive: 6.31 µM [inhibitor, full curve, poor fit]
Cc1ccc(NC(=O)COC(=O)c2csc3c2CCC(C)C3)cc1S(=O)(=O)N1CCCCC1 (stereo not drawn) | inconclusive: 35.5 µM [inhibitor, single point]

SMILES | Potency
Cc1cccc(C(C)(C)C)c1OCCn1ccnc1 | inconclusive: 4.11 µM [activator, full curve, poor fit]
NC1=NC2(CCCCCC2)n2c(nc3ccccc32)N1 | inconclusive: 8.2 µM [inhibitor, partial curve, poor fit]
Cc1c(/C(O)=C2/C(=O)C(=O)N(CCN3CCOCC3)C2c2cccs2)cnn1-c1ccccc1 (stereo not drawn) | inactive and inconclusive: 5.62 µM [activator, single point]
COc1ccc(N(CC(=O)NCc2ccccc2OC)S(=O)(=O)c2ccccc2[N+](=O)[O-])c(OC)c1 | inconclusive: 11.2 µM [inhibitor, partial curve, poor fit]
O=C(CSc1nc2[nH]c(=O)[nH]c(=O)c2s1)Nc1cccc(F)c1 | inconclusive: 35.5 µM [inhibitor, single point]
Cc1ccnc2nc(C(=O)NCCc3ccc(F)cc3)nn12 | inconclusive: 0.794 µM [activator, partial curve, poor fit]
CCC(=O)N1CCN(c2ccccc2NC(=O)COc2cccc(C)c2C)CC1 | inconclusive: 35.5 µM [inhibitor, single point]
Cc1ccc(NC(=O)NCC(c2ccccc2)N(C)C)cc1 (stereo not drawn) | inactive
CC[N+](C)(CC)CCC(c1ccccc1)C1CCCCC1 (stereo not drawn) | inactive
COc1ccc(C(=O)c2c(C)c3cc(C)ccc3n2CC(O)CN2CCOCC2)cc1 (stereo not drawn) | inconclusive: 10.3 µM [inhibitor, single point]
COc1ccccc1-n1c(SCC(=O)Nc2cccc(S(N)(=O)=O)c2)nc2ccccc2c1=O | inconclusive: 2.82 µM [inhibitor, partial curve, poor fit]
O=C(c1ccc(CNS(=O)(=O)c2ccccc2)cc1)N1CCN(c2ccccn2)CC1 | inconclusive: 2.24 µM [inhibitor, partial curve, poor fit]
COc1cc(C(=O)Oc2cccc(Nc3ncnc4ccccc34)c2)cc(OC)c1OC | inconclusive: 11.6 µM [inhibitor, partial curve, poor fit]
N#Cc1cccnc1N1CCN(C(=O)c2cccs2)CC1 | inactive
COc1ccc(NC(=O)CNC(=O)Cn2ccc3ccccc3c2=O)cc1OC | inconclusive: 35.5 µM [activator, single point]
CCc1ccc(NC(=O)c2cc(=O)c3ccc(C)c(C)c3o2)cc1 | inconclusive: 1.26 µM [inhibitor, partial curve, poor fit]
O=S(=O)(NC1CCCCCCC1)c1ccccc1F | inconclusive: 1.78 µM [inhibitor, partial curve, poor fit]
COc1cccc(Nc2nc(CC(C)=O)ns2)c1 | inactive
Cc1ccc2nc(SCC(=O)NCc3ccc(F)cc3)nc(=O)n2c1 | inactive
O=[N+]([O-])c1ccccc1/C=N/Nc1nc(N2CCCC2)nc(N2CCCC2)n1 | inconclusive: 3.55 µM [inhibitor, single point]
CCCCOc1cccc(C2c3c(-c4cc(C)ccc4O)n[nH]c3C(=O)N2CCOC)c1 (stereo not drawn) | inconclusive: 14.1 µM [inhibitor, single point]
CC(C)COC(=O)N1CCCC1C(=O)O (stereo not drawn) | inactive
CNC(=S)N/N=C(\C)c1ccccc1 | inactive

An excerpt from above in order of count of non-hydrogen atoms, high to low:
SMILES | Potency
Cc1c(/C(O)=C2/C(=O)C(=O)N(CCN3CCOCC3)C2c2cccs2)cnn1-c1ccccc1 (stereo not drawn) | inactive and inconclusive: 5.62 µM [activator, single point]
COc1ccc(C(=O)c2c(C)c3cc(C)ccc3n2CC(O)CN2CCOCC2)cc1 (stereo not drawn) | inconclusive: 10.3 µM [inhibitor, single point]
Cc1ccnc2nc(C(=O)NCCc3ccc(F)cc3)nn12 | inconclusive: 0.794 µM [activator, partial curve, poor fit]
NC1=NC2(CCCCCC2)n2c(nc3ccccc32)N1 | inconclusive: 8.2 µM [inhibitor, partial curve, poor fit]
O=S(=O)(NC1CCCCCCC1)c1ccccc1F | inconclusive: 1.78 µM [inhibitor, partial curve, poor fit]

The list goes on:

SMILES | Potency
CN1c2ccccc2N(C)C1c1c(O)ccc2ccccc12 | inactive
COc1ccc(-c2nnn(Cc3ccccc3F)n2)cc1 | inactive
Cc1ccc2sc(-c3ccc(NC(=O)c4cc(-n5cnnc5)ccc4Cl)cc3)nc2c1 | inconclusive: 16.4 µM [inhibitor, single point]
Cc1nnc(NC(=O)c2cccc(S(=O)(=O)N3CCN(C)CC3)c2)s1 | inactive
CCOc1ccc2nc(NC3=NC(C)(C)C=C(C)N3)nc(C)c2c1 | inconclusive: 20.6 µM [inhibitor, single point]
COc1cc(/C=N\n2nnnc2N)ccc1O | inactive
CCc1nnc(NC(=O)C2CCCO2)s1 (stereo not drawn) | inconclusive: 20 µM [activator, single point]
CCCC(=O)N1CCN(c2nc(CC(C)C)c3c(c2C#N)CCC3)CC1 | inconclusive: 2.82 µM [inhibitor, single point]
CC(=O)O[C@H](CC(=O)O)C[N+](C)(C)C | inconclusive: 29.1 µM [inhibitor, single point]
COc1ccc2c(c1)c(CC(=O)NCc1ccc3c(c1)OCO3)c(C)n2C(=O)c1ccc(Cl)cc1 | inconclusive: 0.0021 µM [inhibitor, full curve, poor fit]
NS(=O)(=O)c1ccc(NC(=O)COC(=O)CCC2CCCC2)cc1 | inactive
COC(=O)C1CCN(C(=O)COc2ccc(Cl)cc2)CC1 | inconclusive: 7.94 µM [activator, partial curve, poor fit]
Cc1ccc(-c2csc(Cc3nc(-c4cc5ccccc5oc4=O)cs3)n2)cc1 | inconclusive: 14.6 µM [inhibitor, partial curve]
Cc1cc(OCCCCN2C(=O)NC(C)(C)C2=O)ccc1[N+](=O)[O-] | inconclusive: 35.5 µM [inhibitor, partial curve, poor fit]
CCN1CCN(C(=O)Cn2ncc3c4ccccc4n(Cc4c(C)cc(C)cc4C)c3c2=O)CC1 | inconclusive: 7.94 µM [inhibitor, partial curve, poor fit]
Cc1cc(NC(=O)CSc2cc(C)c3ccccc3n2)no1 | inconclusive: 35.5 µM [inhibitor, single point]
C=CCNC(=O)c1sccc1Oc1ccc(F)cc1[N+](=O)[O-] | inactive
Cc1cc(/C=N/NC(=O)c2cccc([N+](=O)[O-])c2)c(C)n1-c1ccc(Cl)cc1Cl | inconclusive: 17.8 µM [inhibitor, single point]
Cc1ccc(C(=O)Nc2cnc3ccccn3c2=O)cc1 | inactive
CCOC(=O)C1=C(N)Oc2cc(O)ccc2C1c1cccc([N+](=O)[O-])c1 (stereo not drawn) | inconclusive: 15.8 µM [inhibitor, single point]
O=C(CNC(=S)NC(=O)C1CCCCC1)c1ccccc1 | inconclusive: 7.94 µM [activator, partial curve]
COc1cc(OC)c(C(=O)Nc2cc(Cl)ccc2-n2cncn2)cc1OC | inactive
